Taken from: PubChem BioAssay AID1671195 (Yale University, 2021)
Assay: 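Genes whose knockdown alters LDL uptake in liver cancer cells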 (primary screen). System: human Huh7 hepatoma cells. Knock-down reagent: siRNA pool against human genes, 18 nM. Timing: about 2 to 2.5 days of knockdown, then 8 h LDL uptake. Challenge: DiI-labelled LDL at 30 µg/ml for 8 h, in lipoprotein-deficient serum medium. Measurement: 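Per-cell DiI-LDL intensity by automated imaging; well means scaled to the plate median and given as a robust z-score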. Scale: robust z-score: higher = more LDL uptake after knockdown. Active means: 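Active when two or more replicates show a robust z-score above 2 or below -2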.
The whole screen tested about 22,000 reagents; this is a part drawn at random. Of all reagents, about 1,510 (6.9%) got an active call. 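Active includes knockdowns raising or lowering LDL uptake; positive z-scores mean more uptake, negative mean less.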 A number with no mark means an inactive call. The numbers tell different reagents against one gene apart.

| gene knocked down | reagent no. | robust z-score, replicate 1 | robust z-score, replicate 2 | robust z-score, replicate 3 |
| --- | --- | --- | --- | --- |
| PPIC | 1 | -0.705 | -0.289 | -0.48 |
| MSTO1 | 1 | 0.375 | 0.172 | 1.4 |
| MRTFB | 1 | 0.0264 | -0.0449 | -0.183 |
| RBM33 | 1 | 7.24 (active) | 4.12 | 5.1 |
| RBM33 | 2 | 2.38 (active) | 1.77 | 2.46 |
| MGAT5 | 1 | -1.27 | -1.48 | -1.95 |
| BBLN | 1 | -0.522 | -0.00992 | -0.34 |
| TSGA10IP | 1 | -0.0156 | 0.186 | -0.036 |
| EDC3 | 1 | 0.649 | 1.58 | 0.52 |
| RXRA | 1 | -0.0689 | -0.0221 | 0.372 |
| IFI27L2 | 1 | -0.982 | -1.21 | -0.385 |
| DPEP2 | 1 | -0.323 | 0.349 | 0.114 |
| DNAI2 | 1 | -0.408 | -0.868 | -1.04 |
| GRM8 | 1 | 0.804 | 2.49 | 1.71 |
| HDLBP | 1 | -1.38 | -1.67 | -1.3 |
| FCMR | 1 | -2.01 | -1.52 | -2.12 |
| HES3 | 1 | 0.577 | 0.439 | 0.445 |
| PHOX2B | 1 | 0.954 | 1.97 | 1.59 |
| MAGEC3 | 1 | -2.19 | -1.13 | -0.3 |
| VDAC2 | 1 | 3.32 (active) | 3.46 | 1.45 |
| GSTA3 | 1 | 1.52 (active) | 4.18 | 2.29 |
| LOC387894 (retired record) | 1 | -0.209 | -0.596 | -0.409 |
| ANTKMT | 1 | -0.283 | 0.0882 | -0.298 |
| SPATA19 | 1 | -0.0693 | -0.539 | -0.015 |
| C16orf89 | 1 | 0.611 | 0.146 | -0.133 |
| SERPINB13 | 1 | 0.651 | 0.158 | 0.79 |
| GJA4 | 1 | 0.0971 | 0.177 | -0.15 |
| GCC2 | 1 | 0.215 | 0.588 | -0.259 |
| LRRC66 | 1 | -0.505 | -0.321 | -0.316 |
| RPL31P8 | 1 | -0.00725 | 0.168 | 0.302 |
| DPEP3 | 1 | -0.986 | -1.17 | -0.791 |
| HTR1D | 1 | 0.311 | -0.975 | -0.0791 |
| TYK2 | 1 | 0.667 | 0.401 | 0.301 |
| SYT14 | 1 | 1.16 | 1.04 | 1.29 |
| EVC2 | 1 | 0.535 | -0.376 | 0.603 |
| LOC440102 (retired record) | 1 | 1.05 | 0.937 | 0.4 |
| PRKAG1 | 1 | 1.23 (active) | 2.06 | 2.87 |
| C15orf61 | 1 | 1.22 | 3.26 | 1.94 |
| SYPL2 | 1 | 0.0145 | 0.0536 | -0.366 |
| SERPINA1 | 1 | 0.833 | -0.354 | 0.623 |
| DLAT | 1 | 0.585 | 0.954 | 0.473 |
| OR8D2 | 1 | -0.664 | -0.545 | -0.697 |
| CSF2 | 1 | 0.808 | 2.17 | 0.971 |
| INPP5F | 1 | -1.44 | -0.688 | -1.11 |
| ZHX3 | 1 | -0.784 | -0.778 | -0.906 |
| DHDDS | 1 | 2.81 (active) | 2.31 | 3.42 |
| GUCY2F | 1 | -0.709 | 1.32 | -0.218 |
| CYP46A1 | 1 | -0.539 | -0.783 | -1.07 |
| NKX3-2 | 1 | -0.355 | -0.124 | 0.632 |
| RPS4Y1 | 1 | 1.19 | 1.74 | 3.16 |
| SMIM32 | 1 | -0.108 | 0.155 | 0.023 |
| LOC392223 (retired record) | 1 | -0.154 | 0.805 | 1.19 |
| SUPV3L1 | 1 | 0.817 | 1.15 | 0.959 |
| ZNF14 | 1 | 0.0338 | -0.372 | -0.397 |
| COX15 | 1 | 0.282 | -0.705 | -0.954 |
| LAMB1 | 1 | -0.242 | -0.358 | -0.27 |
| LOXL1 | 1 | -1.25 | -0.778 | -1.21 |
| H3C4 | 1 | 1.46 | -0.291 | 0.145 |
| SLC22A12 | 1 | -0.635 | -0.524 | -0.167 |
| ZNF396 | 1 | 0.574 | 0.766 | -0.134 |
| RTP2 | 1 | 0.15 | 0.12 | 0.204 |
| OR2K2 | 1 | 0.799 | 1.4 | -0.691 |
| AP5Z1 | 1 | -0.771 | -0.0162 | -1.73 |
| FBXO2 | 1 | 0.407 | -1.08 | -1.03 |
| IBA57 | 1 | -0.0275 | 0.0167 | 0.19 |
| MVK | 1 | -0.108 | -0.655 | -0.611 |
| GCNT2 | 1 | -1.8 | -0.0125 | -1.6 |
| CD82 | 1 | 1.62 (active) | 2.99 | 4.73 |

Entries listed so far whose gene name begins with C or c (6):
| gene knocked down | reagent no. | robust z-score, replicate 1 | robust z-score, replicate 2 | robust z-score, replicate 3 |
| --- | --- | --- | --- | --- |
| C16orf89 | 1 | 0.611 | 0.146 | -0.133 |
| C15orf61 | 1 | 1.22 | 3.26 | 1.94 |
| CSF2 | 1 | 0.808 | 2.17 | 0.971 |
| CYP46A1 | 1 | -0.539 | -0.783 | -1.07 |
| COX15 | 1 | 0.282 | -0.705 | -0.954 |
| CD82 | 1 | 1.62 (active) | 2.99 | 4.73 |
